Test results published in paper doi:10.1101/2021.10.21.465318.
Construct, isoform or probe ends are uncertain for at least one entry. A weaker result is weaker than the reference pair of the same experiment.

Chains of the proteins cited; added tags and fusions are not shown. Lines headed by an entry give the natural chain unless they say otherwise; changes in a name come on top.
UniProt P23909: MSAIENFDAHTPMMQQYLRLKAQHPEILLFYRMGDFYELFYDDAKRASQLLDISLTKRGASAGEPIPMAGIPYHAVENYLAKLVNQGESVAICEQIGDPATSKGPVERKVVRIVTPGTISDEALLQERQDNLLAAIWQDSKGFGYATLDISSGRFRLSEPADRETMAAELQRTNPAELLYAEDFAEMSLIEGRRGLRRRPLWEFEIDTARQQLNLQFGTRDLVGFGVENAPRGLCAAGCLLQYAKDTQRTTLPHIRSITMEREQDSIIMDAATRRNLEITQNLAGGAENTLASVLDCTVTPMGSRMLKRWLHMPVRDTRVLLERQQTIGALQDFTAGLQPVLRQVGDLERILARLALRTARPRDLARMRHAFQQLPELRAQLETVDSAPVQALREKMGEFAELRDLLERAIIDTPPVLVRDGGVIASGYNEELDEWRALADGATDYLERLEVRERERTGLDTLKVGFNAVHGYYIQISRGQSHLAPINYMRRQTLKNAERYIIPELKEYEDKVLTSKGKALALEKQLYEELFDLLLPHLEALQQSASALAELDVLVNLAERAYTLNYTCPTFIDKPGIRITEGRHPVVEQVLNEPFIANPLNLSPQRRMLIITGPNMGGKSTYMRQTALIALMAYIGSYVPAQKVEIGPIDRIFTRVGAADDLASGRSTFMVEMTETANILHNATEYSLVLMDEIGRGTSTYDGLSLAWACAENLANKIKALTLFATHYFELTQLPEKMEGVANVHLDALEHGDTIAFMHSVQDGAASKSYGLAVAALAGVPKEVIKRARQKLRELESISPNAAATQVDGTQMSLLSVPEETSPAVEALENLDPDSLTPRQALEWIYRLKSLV

Columns and labels:
EcMutS = EcMutS (UniProt P23909); test: SPR
HsMSH2 + HsMSH6 = test: SPR
[1] = 1 mM ATP, dissociates at least 10-fold faster than from blocked end

## AAAGCTGGAGCTGAAGCTTAGCTTAGGATCATCGAGGATCGAGCTCGGTGCAATTCAGCGGTACCCAATTCGCCCTATAGTT / AACTATAGGGCGAATTGGGTACCGGTCAATTGCACCGAGCTTGATCCTCGATGATCCTAAGCTAAGCTTCAGCTCCAGCTTT [82-mer G/T open-end]
EcMutS; [1]
  binding result: binds more weakly
EcMutS; no ATP, 10 mM Mg2+
  Kd: 3 nM
HsMSH2 + HsMSH6; [1]
  binding result: binds more weakly
HsMSH2 + HsMSH6; no ATP, 10 mM Mg2+
  Kd: 0.7 nM
